We go through 42 sequences from article PMC7819943, “Rice protein-binding microarrays: a tool to detect cis-acting elements near promoter regions in rice”.

Some of the results follow.

The target in this experiment is T1, OsSMF1 (Oryza sativa, UniProt Q6ZLB0 1-436).
T1 sequence: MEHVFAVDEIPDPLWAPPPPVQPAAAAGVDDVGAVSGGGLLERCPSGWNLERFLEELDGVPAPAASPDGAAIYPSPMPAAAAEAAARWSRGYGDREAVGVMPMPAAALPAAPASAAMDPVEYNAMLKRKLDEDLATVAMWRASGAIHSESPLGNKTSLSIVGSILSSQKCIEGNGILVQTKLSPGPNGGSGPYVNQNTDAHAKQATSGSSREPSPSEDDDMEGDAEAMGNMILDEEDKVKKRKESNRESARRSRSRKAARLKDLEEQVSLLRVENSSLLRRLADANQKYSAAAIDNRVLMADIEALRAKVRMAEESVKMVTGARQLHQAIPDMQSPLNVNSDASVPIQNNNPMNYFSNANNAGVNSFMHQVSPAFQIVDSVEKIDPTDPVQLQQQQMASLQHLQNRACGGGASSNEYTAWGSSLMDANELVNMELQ
Description: protein-binding microarray (RPBM); PBS, 2% BSA, 51.3 ng/ul salmon testes DNA, 50 uM zinc acetate, 200 nM TF, 25 C, 1 h; high values mean tight binding. The note with it: protein: recombinant; tags: N-terminal polyhistidine and DsRed monomer fusion (pET32a); chain copies: 2; label: CyDye5-dUTP incorporated in the synthesized complementary strand; 3' TTTTT single-stranded linker to array surface; dsDNA, one strand shown. In outline: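 For the binding signal, per-feature fluorescence intensity was read in arbitrary units on an Axon 4000B scanner. Before scanning, a 2% BSA-blocked custom Agilent array made double-stranded with Cy5-dUTP was washed after 1 h at 25 °C with 200 nM protein and 50 µM zinc acetate. The proteins were Ni–NTA-purified transcription factors with N-terminal polyhistidine and DsRed fusions, expressed in E. coli BL21-CodonPlus.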
On to “TGAACATGCCCATTGTTACTCATTCCTAATACTATAGGAACGGAGTCACCTAGTGCAG”, for which the binding signal is 42200 fluorescence intensity (a.u.).
On to “ACCCTTCCGCTTTGCCCCTGCTGCCTACACCGCCCCACCGCGGAGTCACCTAGTGCAG”, for which the binding signal was 3480 fluorescence intensity (a.u.).
The figure for “CCGCGGCCGCTCGTCCCACGGATCTGGAAATCGCATCCGCCGGAGTCACCTAGTGCAG” is 3240 fluorescence intensity (a.u.).
The value for “TGCCTCACCGCCACTAGCTAGCAGCAGCGGCGGCGGCGGCCGGAGTCACCTAGTGCAG” was 22700 fluorescence intensity (a.u.).
Consider “ACAAACTTCCAACTTTTCTATCACATCGTTCCAATTTCAACGGAGTCACCTAGTGCAG”, for which the binding signal was 22100 fluorescence intensity (a.u.).
In the case of “AATTCAAGTTGCCACGTTCACCTCAATAATGCTTGGGTACCGGAGTCACCTAGTGCAG”, the binding signal was 4410 fluorescence intensity (a.u.).
The figure for “AACCAACGGTCGCTGTTACGCCACGTCACCTCACCGACGCCGGAGTCACCTAGTGCAG” is 39200 fluorescence intensity (a.u.).
With “GTCTGTGATCCACTTAAGCCGCAAACTACACGTAAGATATCGGAGTCACCTAGTGCAG”, the binding signal is 5090 fluorescence intensity (a.u.).
Turning to “GTACTGCACTTGGGTTATAACTTCTCGACCTTCAACACTTCGGAGTCACCTAGTGCAG”, the binding signal is 17300 fluorescence intensity (a.u.).
The value for “GTTTTATTTTGTCCACGTAGATCCTCTAAGTACTTGTTTTCGGAGTCACCTAGTGCAG” was 16400 fluorescence intensity (a.u.).
The figure for “CAACTGCACCGTGCAGCTGCCGCAGCATCACCTTCCCACGCGGAGTCACCTAGTGCAG” is 3500 fluorescence intensity (a.u.); for “TGCTTCCACCGCATCGTCACTCGCCGGTGAGCATCCCTCTCGGAGTCACCTAGTGCAG” it is 4800 fluorescence intensity (a.u.); for “ATAATCCTATTGTAGATTTGCTGAGTTGTACCACCATATCCGGAGTCACCTAGTGCAG” it is 7970 fluorescence intensity (a.u.).
The figure for “TGTTTAGTTGGTGTAGAGATGGTAGATGCTAACTAAACTGCGGAGTCACCTAGTGCAG” is 18400 fluorescence intensity (a.u.); for “AGTACGTAAAGGTGTAGGACGACAACTGTTGATGGGACATCGGAGTCACCTAGTGCAG” it is 3690 fluorescence intensity (a.u.); for “AGCTGGTTTTGCCAATTTTATTTGCTTGTCATTGGCTCTGCGGAGTCACCTAGTGCAG” it is 3890 fluorescence intensity (a.u.).
As to “GAGCCAGTGGAGATGGAAGCTGATGCAATGTTGGAGGCGGCGGAGTCACCTAGTGCAG”, the binding signal is 3930 fluorescence intensity (a.u.).
As for “CCGCGCACCATCTCAACCGGTCAACAGAGACTCTCCACTACGGAGTCACCTAGTGCAG”, the binding signal is 4050 fluorescence intensity (a.u.).
The value for “TAAGTATGACTCGTAGACAACGGACCCTTTACGATAGGTTCGGAGTCACCTAGTGCAG” was 3230 fluorescence intensity (a.u.); that for “TGGGCCCCACCGAGCAGTGAGAGGACGAGTAGTACAGATCCGGAGTCACCTAGTGCAG” was 28800 fluorescence intensity (a.u.); that for “CCGCTCGCCGCCGCGCGGTCACTGCCATGCGGCGCCGCCACGGAGTCACCTAGTGCAG” was 3140 fluorescence intensity (a.u.).
Turning to “AAAGCTGCGCCGCCACAGGCGCGCACGTCAGCGCTGTCGCCGGAGTCACCTAGTGCAG”, the binding signal was 4630 fluorescence intensity (a.u.).
As to “CCATGTTTTCATCATCATCTTCTTCTTCTTCTTCCACCCGCGGAGTCACCTAGTGCAG”, the binding signal was 3450 fluorescence intensity (a.u.).
Take “TCATCCGGGCCCACGTGCACAGAGACACCCCAGCTCACGCCGGAGTCACCTAGTGCAG”: the binding signal was 3580 fluorescence intensity (a.u.).
The figure for “GTTGTAACAGTGATCCACCTTTGTTCTGTTTTGAGGTCATCGGAGTCACCTAGTGCAG” is 4150 fluorescence intensity (a.u.).
The figure for “ATTGCGAGCGCCCATGGATTGGACACGCGTCTCTCTCGCCCGGAGTCACCTAGTGCAG” is 5760 fluorescence intensity (a.u.).
In the case of “CCGCCGCTCCAGCCCACCACCGCCGCCACTTCAGCTAGCTCGGAGTCACCTAGTGCAG”, the binding signal was 3250 fluorescence intensity (a.u.).
The figure for “CAAACCGACACACGACGTGTGACGTGTTACACGCACCCCTCGGAGTCACCTAGTGCAG” is 22200 fluorescence intensity (a.u.); for “TTCGTCTGGCAACGCCGCCGCCGCCGCCCTAGTCGCCGCTCGGAGTCACCTAGTGCAG” it is 3760 fluorescence intensity (a.u.); for “GAAAATTTTCCTATTTGGCCCTTTGATACAAAGGATTGGACGGAGTCACCTAGTGCAG” it is 3370 fluorescence intensity (a.u.).
The value for “CCCCTATGTACATTTATGTGGGCCTCATGTGTCATAACCTCGGAGTCACCTAGTGCAG” was 4700 fluorescence intensity (a.u.); that for “GCGATGCCTATGCAAGTTGCCCACGTCCTCCATGGAAACTCGGAGTCACCTAGTGCAG” was 3280 fluorescence intensity (a.u.); that for “TCCCGCGGATCGCCTCCTCGGCGCGCGCCGTGGCGGCCAACGGAGTCACCTAGTGCAG” was 3540 fluorescence intensity (a.u.).
On to “CGCCTCTGTCATAGCGGAGAGCACGGTCACCACCACGGTGCGGAGTCACCTAGTGCAG”, for which the binding signal is 5990 fluorescence intensity (a.u.).
As to “TTAATGTATGACGCTGTTCACTTTTCATCTAACGCTTAACCGGAGTCACCTAGTGCAG”, the binding signal was 4120 fluorescence intensity (a.u.).
The figure for “AAGAGATGCAATTTACACTTTTGATGAATCATCCAAAGTCCGGAGTCACCTAGTGCAG” is 5470 fluorescence intensity (a.u.).
The figure for “TCCCACACGCCATGACGCCAACCAACCCAAGCACAGCAGTCGGAGTCACCTAGTGCAG” is 3850 fluorescence intensity (a.u.).
For the sequence “GCCAATCGAAACGTTGGCTCGCTCGGTCATCATCTTGCATCGGAGTCACCTAGTGCAG”, the binding signal is 4000 fluorescence intensity (a.u.).
The value for “CTCCACCACTAATTCCTTCTTGCCACATGTGGTCGCTGATCGGAGTCACCTAGTGCAG” was 3880 fluorescence intensity (a.u.).
“ATAAACCAATGTAAAGAAAAGAGATGAAACTACTTTGACGCGGAGTCACCTAGTGCAG”: the binding signal was 5230 fluorescence intensity (a.u.).
The figure for “ACGGGATGCTATTTTGTAGCTGCCCTCTTAAACAAGACGACGGAGTCACCTAGTGCAG” is 3970 fluorescence intensity (a.u.); for “ATGCCATGAAAGGCTAGCTGAAAGCAACACGATGCACTTGCGGAGTCACCTAGTGCAG” it is 16700 fluorescence intensity (a.u.).
